Measurements as given in PMC3631101.
Substitutions are numbered along the chain they refer to. Results are given in words; binding and its absence hold for the method and conditions named. In cells and extracts the contact can be indirect. For some assays here: Binding can be weak; no strength is given. Tags and fused reporters may be left off the sequences shown.

Columns and labels:
[1] = target: T1, Ser587Ala HA–SIK2 adenovirally expressed in primary rat adipocytes (human) (UniProt Q9H0K1); experiment: co-IP; anti-HA immunoprecipitates of HA–SIK2 blotted for endogenous 14-3-3; HEK-293 cells treated with forskolin, primary rat adipocytes with CL 316,243 (100 nM, 30 min)
T1 sequence: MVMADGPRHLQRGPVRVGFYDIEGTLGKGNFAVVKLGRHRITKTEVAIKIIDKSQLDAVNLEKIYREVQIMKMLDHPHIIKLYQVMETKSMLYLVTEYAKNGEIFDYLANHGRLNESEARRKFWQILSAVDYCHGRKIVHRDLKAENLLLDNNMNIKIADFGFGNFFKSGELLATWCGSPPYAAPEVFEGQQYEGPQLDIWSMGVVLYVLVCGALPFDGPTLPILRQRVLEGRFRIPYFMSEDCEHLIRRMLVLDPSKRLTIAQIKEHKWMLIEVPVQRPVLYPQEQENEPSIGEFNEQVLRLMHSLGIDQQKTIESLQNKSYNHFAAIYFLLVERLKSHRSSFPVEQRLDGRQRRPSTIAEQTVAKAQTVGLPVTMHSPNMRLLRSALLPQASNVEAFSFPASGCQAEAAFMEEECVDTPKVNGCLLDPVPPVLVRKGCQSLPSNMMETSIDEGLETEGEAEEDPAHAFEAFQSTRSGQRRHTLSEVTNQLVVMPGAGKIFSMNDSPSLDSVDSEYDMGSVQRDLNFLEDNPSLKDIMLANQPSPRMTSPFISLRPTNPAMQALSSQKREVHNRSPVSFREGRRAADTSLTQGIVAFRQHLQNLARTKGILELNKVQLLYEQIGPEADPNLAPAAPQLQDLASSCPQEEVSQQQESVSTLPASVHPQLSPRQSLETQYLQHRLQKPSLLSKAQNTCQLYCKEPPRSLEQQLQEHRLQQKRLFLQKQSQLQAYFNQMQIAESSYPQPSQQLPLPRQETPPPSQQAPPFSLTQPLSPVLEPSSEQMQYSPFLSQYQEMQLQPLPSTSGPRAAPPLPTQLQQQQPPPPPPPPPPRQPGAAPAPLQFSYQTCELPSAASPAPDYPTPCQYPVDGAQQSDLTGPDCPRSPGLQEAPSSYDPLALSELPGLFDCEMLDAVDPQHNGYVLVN

[2] = target: T2, Ser358Ala HA–SIK2 adenovirally expressed in primary rat adipocytes (human) (UniProt Q9H0K1); experiment: as above
T2 sequence: T1 sequence with S358A, A587S

binding [1]: binds
binding [2]: no binding
Substance: endogenous 14-3-3 of primary rat adipocytes
